Reference: PubChem BioAssay AID2685 (National Center for Advancing Translational Sciences (NCATS), 2010)
The list shows a part of the results. Further columns of the screen follow, without active or inactive calls. Compounds called inactive in the main read-out are mostly missing here. The note in brackets gives the kind of curve behind each potency; many fits are weak.

Assay: qHTS Assay for Lipid Storage Modulators in Drosophila S3 Cells;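 on cell number change: cells counted by Cell Tracker Red CMTPX staining in the red channel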
Settings: BODIPY lipid droplet fluorescence, 18-24 h; for cell number change: measured here: cell count max response, cells fed with added oleic acid
Procedure, shortened: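 Laser-scanning cytometry quantifies lipid droplet accumulation (500–530 nm total intensity; droplet/cell object ratio) in oleic acid-fed (400 uM added) Drosophila S3 cells treated with a concentration series. 20 uM Triacsin C defined 100% inhibition.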

[1] = measured here: lipid fluorescence (Fed channel) AC50, cells fed with added oleic acid
[2] = measured here: cell number channel AC50, cells fed with added oleic acid

Compound	cell number change	AC50 [1]	AC50 [2]
Cc1cc(-c2ccccc2)nc(N(C)NC(=O)c2ccc(Cl)cc2)c1S(C)(=O)=O	-2.96%	0.0231 µM [rising, full curve, poor fit]	
Cc1ccc(CNC(=O)c2ccc(Cn3nc(C)cc3C)o2)cc1			0.731 µM [falling, single point]
C#CCn1cc(/C=N/Nc2nc3ccccc3[nH]2)c2ccccc21	-28.4%		
COc1ccc(CNC(=O)COC(=O)c2ccc3c(c2)OCCO3)cc1	8.1%	0.116 µM [rising, full curve, poor fit]	
O=C(Nc1nccs1)c1cccc2ccccc12	5.26%	1.3 µM [falling, full curve]	
O=C(Nc1cccc(Cl)c1N1CCCC1)c1cc2ccccc2o1	-23%	3.66 µM [rising, full curve, poor fit]	
Cc1nn(-c2ccc([N+](=O)[O-])cc2)c2c1C(c1cccc(Br)c1)N1C(=N2)C(=O)Nc2ccccc21 (configuration not stated)	16.7%		1.16 µM [falling, full curve]
CCOc1cc(N2CCOCC2)c(OCC)cc1NC(=O)c1cc(S(=O)(=O)N2CCOCC2)ccc1Cl	3%		
Cc1ccc(S(=O)(=O)N2CCC(N3CCC(C)CC3)CC2)cc1	14.1%	14.6 µM [rising, partial curve]	
CC(=O)OC(C)=O	-7.63%	0.731 µM [rising, single point]	
O=S1(=O)CCOC[C@H](CC2CCCCC2)N1Cc1ccccc1Br	34.4%	29.1 µM [rising, single point]	0.0058 µM [rising, full curve, poor fit]
O=[N+]([O-])c1cc(/C=N/O)ccc1SCc1ccccc1Cl	-43.3%	0.0411 µM [falling, full curve, poor fit]	13 µM [falling, partial curve, poor fit]
O=C(Nc1cc(C(F)(F)F)ccc1N1CCOCC1)c1cn2ccccc2n1		0.731 µM [rising, partial curve, poor fit]	
Cc1ccc(S(=O)(=O)N(C)C)cc1NC(=S)Nc1ccc2cn[nH]c2c1		20.6 µM [rising, single point]	
CC(C)CCNC(=O)NC(=O)COC(=O)/C=C/c1cc(Br)ccc1F	1.18%	6.51 µM [falling, single point]	6.51 µM [falling, single point]
O=C(NCCCN1CCOCC1)c1nn2c(C(F)(F)F)cc(-c3ccco3)nc2c1Cl	-5.56%		
CCOc1ccc2c(c1)C(C)=CC(C)(C)N2S(=O)(=O)c1ccc(F)cc1	-22.3%	29.1 µM [falling, single point]	
CCC(CC)C(=O)NC12CC3CC(CC(C3)C1)C2	-7.91%	0.00461 µM [falling, full curve, poor fit]	
COc1cccc(C(=O)Nc2c3c(nc4c2CCC4)CCCC3)c1	33.5%	18.4 µM [rising, single point]	29.1 µM [rising, single point]
CCCc1nc(C)cc(N2CCN(c3ccccc3)CC2)n1	-5.63%		
O=C(CCCN1C(=O)/C(=C/c2cccs2)SC1=S)Nc1cccnc1	13.4%	2.91 µM [rising, partial curve, poor fit]	

Compound	cell number change	AC50 [1]	AC50 [2]
O=C(Cc1ccc(-n2c(=O)[nH]c3ccccc3c2=O)cc1)N1CCN(c2cccc(Cl)c2)CC1	15.6%		
CCOc1ccccc1Oc1cn[nH]c1-c1ccc(OCC(=O)NN)cc1O	1.62%	1.84 µM [rising, partial curve]	
O=C(CN1CCC(N2CCCCC2)CC1)N1CCCc2ccccc21		0.731 µM [falling, partial curve, poor fit]	
COc1cc2cncc(Cc3ccc(Cl)cc3)c2cc1OC	-43.6%	0.13 µM [falling, full curve, poor fit]	29.1 µM [falling, partial curve, poor fit]
CCCCc1c(O)nc(SCC(=O)O)[nH]c1=O	18.1%	25.9 µM [rising, single point]	
Cc1nnc(NC(=O)c2ccc(S(=O)(=O)N(C)c3ccccc3)cc2)s1	1.13%	18.4 µM [rising, single point]	
CCOC(=O)c1cc(NC(=O)COc2ccc([N+](=O)[O-])cc2)cc(C(=O)OCC)c1	18.2%	2.06 µM [rising, partial curve]	2.06 µM [falling, partial curve]
CCN(C=NC1=NN(c2cccc(C(F)(F)F)c2)CC1)CC	12.5%	1.16 µM [falling, partial curve]	
COc1cc(C2C(C(=O)OC(C)C)=C(C)Nc3[nH]c(=O)[nH]c(=O)c32)ccc1O (configuration not stated)	0.504%		
CCc1noc(C)c1C(=O)OCC(=O)c1ccc(OC)c(OC)c1	-0.413%	6.51 µM [falling, full curve]	
CCC(=O)N(Cc1cc2cc(OC)ccc2[nH]c1=O)c1ccccc1C	66%	2.59 µM [rising, full curve, poor fit]	8.2 µM [rising, partial curve]
Fc1ccc2[nH]c3c(Cl)ncnc3c2c1	15.5%		
Cc1c(-c2ccccc2)c(=O)oc2ccc(O)cc12	3.58%	0.517 µM [falling, partial curve, poor fit]	
CCS(=O)(=O)N1CCC2(CC1)OCCN2S(=O)(=O)c1ccc(OC)cc1	86.9%		29.1 µM [rising, single point]
Cc1ccc(SCc2[nH]nc3c2C(c2ccco2)C(C#N)=C(N)O3)cc1 (configuration not stated)	-11.8%	8.2 µM [falling, single point]	
COC(=O)c1nn(-c2ccccc2)c(-c2ccccc2)c1C(=O)c1ccccc1	19.3%		
COc1ccc2oc(C(F)(F)C(F)(F)F)cc(=O)c2c1	-11.4%	1.46 µM [falling, full curve]	
Cc1ccc(C(=O)Nc2nc(-c3ccccn3)cs2)s1		0.731 µM [falling, full curve]	
COC(=O)C(CC(C)C)NC(=O)/C=C/c1ccccc1Cl (configuration not stated)	12.8%	29.1 µM [rising, single point]	
Cc1cccc(Cn2ncc(Cl)c(Cl)c2=O)c1	-44%		
Cc1ccc(NC(=O)c2ccco2)c(NC(=O)COc2ccccc2)c1	2.78%	10.3 µM [rising, partial curve]	

Compound	cell number change	AC50 [1]	AC50 [2]
Cc1cc(C)c(-c2csc(NC(=O)/C=C/c3cccs3)n2)c(C)c1		14.6 µM [falling, partial curve]	
CC(C)(C)C1CC=C2C(C#N)=C(N)C(C#N)(C#N)C(c3cccs3)C2C1 (configuration not stated)	-11.7%	23.1 µM [rising, single point]	
Cn1c(Cn2nnc3ccccc32)nnc1SCC(=O)N1c2ccccc2CCc2ccccc21	-14.8%	6.51 µM [rising, single point]	
N#Cc1cccc(NC(=O)CCn2ccnc2)c1	61.9%	7.31 µM [rising, partial curve, poor fit]	23.1 µM [rising, single point]
O=C1CN(S(=O)(=O)c2cccc(C(=O)O)c2)c2ccccc2N1	5.88%	6.51 µM [falling, single point]	6.51 µM [rising, single point]
O=c1[nH]c2ccc(S(=O)(=O)Nc3ccc(-c4nnc5n4CCCCC5)cc3)cc2o1	5.62%		
C=CCNC(=O)CN1CCC(O)(c2ccc(F)cc2)CC1	7.41%	2.91 µM [rising, full curve]	
CN(CC(=O)Nc1cccc2c1CCCC2)S(=O)(=O)c1ccc(Br)cc1	0.697%	32.6 µM [rising, single point]	
O=C(c1ccco1)N1CCN(/C(=N/S(=O)(=O)c2cccs2)c2ccccc2Cl)CC1		6.51 µM [falling, single point]	
Oc1ccc2ccccc2c1N=Nc1nccs1	-62.5%	29.1 µM [falling, single point]	18.4 µM [falling, single point]
Cc1ccc2ncnc(Nc3cccc([N+](=O)[O-])c3)c2c1		29.1 µM [falling, single point]	
O=C(NCc1cccs1)c1ccc(N2CCCCC2)nc1	-30.1%	13 µM [falling, partial curve, poor fit]	6.51 µM [falling, full curve, poor fit]
CCOC(=O)c1cnn(-c2ccccc2)c1-n1cccc1C(=O)C(=O)Nc1ccccc1	-7.35%	0.13 µM [falling, full curve]	
COc1cccc(C=Nc2ccccc2C#N)c1O		29.1 µM [rising, single point]	
Cc1ccc(NC(=O)CCC(=O)NNS(=O)(=O)c2ccccc2)c(C)c1	-15%	0.517 µM [falling, full curve, poor fit]	
Cc1ccc(S(=O)(=O)N2CCC(=O)N(C(COCc3cccc(C(F)(F)F)c3)Cc3ccccc3)CC2)cc1 (configuration not stated)	0.227%		
COc1ccc(N2CCN(c3nc(Cl)nc(Nc4ccc(F)cc4)n3)CC2)cc1		2.91 µM [rising, partial curve]	
CCc1cccc(C)c1NC(=O)COC(=O)c1cc([N+](=O)[O-])ccc1N1CCOCC1		1.64 µM [rising, partial curve]	2.06 µM [rising, partial curve, poor fit]
COc1ccc(NC(=O)Cn2nnc(C(=O)NCCc3ccc(OC)c(OC)c3)c2N)c(OC)c1	27%	32.6 µM [rising, single point]	

By substructure, the compounds so far with a COOH group (2)
Compound	cell number change	AC50 [1]	AC50 [2]
CCCCc1c(O)nc(SCC(=O)O)[nH]c1=O	18.1%	25.9 µM [rising, single point]	
O=C1CN(S(=O)(=O)c2cccc(C(=O)O)c2)c2ccccc2N1	5.88%	6.51 µM [falling, single point]	6.51 µM [rising, single point]
